Where “and” joins values, the source holds several entries; their conditions need not be identical. Equal entries are not always repeated. The whole screen tested about 300,000 compounds, of which about 5,400 (1.8%) were called active. The shares of active, inactive and inconclusive entries below differ from those in the screen. The call rests on the fitted dose curve; tested in HEK293 cells. A potency beside an inconclusive call is a rough fit, not a confirmed value.
experiment: qHTS for inhibitors of binding or entry into cells for Marburg Virus; conditions: Marburg virus pseudotyped entry inhibition, cell reporter; series mostly up to 37.8 µM
Potency means the concentration at half of the fitted maximal effect.

Structure (SMILES)	Potency
COC(=O)c1c(C)nc2ccccc2c1-c1ccccc1	inactive
Cc1cc(/C=N/NC(=O)C(=O)N2CCCC2)c(C)n1-c1cccc(Br)c1	inconclusive: 10 µM [inhibitor, partial curve]
COC(=O)/C(C#N)=C/c1ccc(C)o1	inconclusive: 1.12 µM [inhibitor, partial curve, poor fit]
O=C(CN1C(=O)CC(c2ccco2)Sc2ccccc21)Nc1ccc(OC(F)(F)F)cc1 (stereo unspecified)	inactive
C=CCSc1nc2c(cc1C#N)CCC2	inactive
CCN(CC)C(=N)/C(C#N)=N/Nc1ccc(C)cc1	inconclusive: 0.794 µM [activator, full curve, poor fit]
CCCn1c2ccc(C)cc2c2nnc(SCCN3CCCCC3)nc21	inconclusive: 12.6 µM [inhibitor, partial curve, poor fit] and inconclusive: 11.2 µM [inhibitor, partial curve, poor fit]
N#CCCN(C(=O)COC(=O)C1CCN(S(=O)(=O)c2cccs2)CC1)c1ccccc1	inactive
CCOc1ccc(CCNC(c2nnc(-c3ccccc3)o2)c2ccccc2Cl)cc1OCC (stereo unspecified)	inconclusive: 11.2 µM [inhibitor, partial curve]
O=C(/C=C/c1ccccc1)c1ccoc1	inactive
O=S1(=O)C[C@H](N2CCCC2)[C@@H](COCc2ccccc2)N1	inconclusive: 0.628 µM [activator, full curve, poor fit]
CC(C)CNC(=O)CN(C)S(=O)(=O)c1ccc(F)cc1	inconclusive: 15.8 µM [activator, single point]
Fc1ccccc1CSc1nncn1NC/C=C/c1ccccc1	inactive
Cc1ccc(C(=O)COC(=O)c2cccc(NC(=O)c3ccc([N+](=O)[O-])cc3[N+](=O)[O-])c2)cc1	inconclusive: 0.116 µM [activator, full curve, poor fit]
N#Cc1c(N)n[nH]c1CCCN	inconclusive: 6.51 µM [inhibitor, partial curve, poor fit]
CN(C(=O)C=Cc1ccccc1)c1ccccc1	inactive
Cc1cc(O)c(/C=N/Nc2ccccc2Cl)c(=O)o1	inconclusive: 29.1 µM [inhibitor, single point]
CCCN(C(=O)Cn1nc(Cc2cccnc2)c2ccccc2c1=O)c1ccc(C(C)C)cc1	inconclusive: 35.5 µM [inhibitor, single point]
CCCCN(C(=O)c1ccc(Cl)cc1)C1CC2CCC(C1)N2C (stereo unspecified)	inconclusive: 18.4 µM [inhibitor, single point]
Cc1noc(C)c1C(=O)NCCCc1ccccc1	inactive
Cc1ccc(C(=O)Nc2cccc(-c3ccc(N4CCOCC4)nn3)c2)cc1C	inactive
COc1ccc(-c2ccc(=O)n(CC(=O)Nc3ccc4c(c3)OCCO4)n2)cc1	inactive
CC(C)CC(=O)Nc1ccc(-c2nc3ccccc3c(=O)o2)cc1	inconclusive: 18.4 µM [inhibitor, single point]
COC(=O)c1cc(S(=O)(=O)Nc2cc(S(=O)(=O)N(C)C)ccc2C)oc1C	inactive

Structure (SMILES)	Potency
COc1ccccc1N=Nc1c(O)[nH]c(=S)[nH]c1=O	inconclusive: 35.5 µM [activator, partial curve, poor fit]
CC1Cc2cc(/C(O)=C3/C(=O)C(=O)N(CC4CCCO4)C3c3ccco3)ccc2O1 (stereo unspecified)	inactive
O=C(CSc1ccc(Cl)cc1)Nc1ccc(N2CCN(C(=O)c3ccc(Cl)cc3)CC2)cc1	inconclusive: 23.1 µM [inhibitor, single point]
COc1ccc(S(=O)(=O)n2ccc(C(C)Oc3ccc(-c4ccccc4)c(F)c3)n2)cc1 (stereo unspecified)	inconclusive: 29.1 µM [inhibitor, single point]
CC(C)Cc1ccc(C(C)C(=O)Nc2ccccc2O)cc1 (stereo unspecified)	inconclusive: 9.2 µM [inhibitor, partial curve, poor fit]
COc1ccc(NC(=O)C(=O)c2cn(CC(=O)N3CCCC3)c3ccccc23)cc1OC	inconclusive: 2 µM [inhibitor, partial curve, poor fit]
O=C(Nc1ccc(Cl)c(S(=O)(=O)N2CCOCC2)c1)c1ccc2c(c1)OCO2	active: 10 µM
Cc1ccc(C(=O)NC(=S)Nc2cccc(NC(=O)c3ccccc3)c2)cc1[N+](=O)[O-]	inconclusive: 7.94 µM [inhibitor, partial curve, poor fit]
N#CCn1c2ccccc2c2nc3ccccc3nc21	inconclusive: 3.98 µM [activator, single point]
C=CCN(c1ccccc1OC)S(=O)(=O)c1cccc(C(=O)OCC(=O)c2c(N)n(C)c(=O)n(C)c2=O)c1	inconclusive: 35.5 µM [inhibitor, single point]
O=C(OCC(=O)N1CCN(c2ccccc2)CC1)c1ccccc1[N+](=O)[O-]	inconclusive: 35.5 µM [inhibitor, single point]
COc1cc2nc(CN3CCN(S(=O)(=O)c4cc(C)ccc4C)CC3)[nH]c(=O)c2cc1OC	inactive
COc1ccc(OC)c(NC(=O)COC(=O)CSc2ccc(Cl)cc2)c1	inconclusive: 0.708 µM [activator, full curve, poor fit]
CCCN1C2CCCC1CC(NC(=S)NCCCOCC)C2 (stereo unspecified)	inconclusive: 5.01 µM [inhibitor, full curve, poor fit]
O=C(C1CCN(S(=O)(=O)c2cccc3cccnc23)CC1)N1CCN(c2ccccn2)CC1	inactive
CCOC(=O)/C(C#N)=C/c1ccc(OCC(=O)Nc2ccccc2)c(OC)c1	inconclusive: 10 µM [activator, partial curve]
Cc1ccc(Nc2nc(N)nc(CCl)n2)cc1	inconclusive: 35.5 µM [inhibitor, single point]
Cc1c(Cl)cccc1N=Cc1ccc([N+](=O)[O-])s1	inconclusive: 29.1 µM [inhibitor, single point]
CCOc1ccc(C(=O)OCC(=O)N2CCCC2)cc1OCC	inactive
O=C(c1ccccc1)C1NC1c1ccccc1 (stereo unspecified)	inactive
CCn1c(SCC(=O)Nc2nc(-c3ccccc3)cs2)nnc1-c1ccccc1	inconclusive: 5.17 µM [inhibitor, partial curve]
CCC(=O)Nc1c2c(nc3c1CCC3)CCCC2	inactive
O=C(NCCSc1ccccc1)c1cncc(Br)c1	inactive
Nc1ccccc1C(=O)/C=C\c1ccc2c(c1)OCO2	inconclusive: 5.31 µM [activator, single point]

Structure (SMILES)	Potency
Fc1ccccc1CCNc1c2c(nc3ncnn13)CCCC2	active: 6.31 µM
COc1ccc(-c2nc3n(n2)C(c2cccc(C)c2)C(C(N)=O)=C(C)N3)cc1OC (stereo unspecified)	inactive
CC1(C(=O)O)COC(c2ccc(Cl)cc2)OC1 (stereo unspecified)	inactive
N#C/C(=N\Nc1ccc(S(=O)(=O)N2CCc3ccccc32)cc1)C(N)=S	inactive
O=[N+]([O-])c1ccc(C=NN2CCCCCC2)cc1	inconclusive: 31.6 µM [inhibitor, single point]
C=CCOC(=O)N[C@H](/C(C(=O)OC)=C(\C)NCc1ccccc1)c1cccc(F)c1	inconclusive: 1.88 µM [inhibitor, partial curve, poor fit]
Nc1nnc(Cc2ccccc2)s1	inconclusive: 6.51 µM [inhibitor, single point]
COc1ccc(/C=N/Nc2nc(Nc3ccccc3)nc(N3CCCC3)n2)cc1[N+](=O)[O-]	inconclusive: 8.91 µM [inhibitor, partial curve, poor fit]
CC1CN(c2ccc(Cl)cc2[N+](=O)[O-])CCN1S(C)(=O)=O (stereo unspecified)	inconclusive: 11.2 µM [inhibitor, single point]
CCCCN(C(=O)c1cccc(S(=O)(=O)N2CCN(C)CC2)c1)c1c(N)n(CCC)c(=O)[nH]c1=O	inconclusive: 17.8 µM [activator, single point]
C/C(=N/NC(=O)CNC(=O)c1ccccn1)c1ccc([N+](=O)[O-])cc1	inconclusive: 3.55 µM [inhibitor, partial curve, poor fit]
O=C(O)CCSc1nnc(-c2ccc(Cl)cc2Cl)o1	inconclusive: 0.631 µM [inhibitor, full curve, poor fit]
CCSc1nnc(NC(=O)CSc2nnc(CNC(=O)c3ccccc3F)o2)s1	inactive
COc1ccc(CN(C2CCCC2)S(=O)(=O)c2ccc(-n3cnnn3)cc2)cc1	inconclusive: 22.4 µM [inhibitor, partial curve, poor fit]
O=C(OCc1ccc(COC(=O)c2cccnc2Cl)cc1)c1cccnc1Cl	inconclusive: 3.16 µM [inhibitor, partial curve, poor fit]
O=S1(=O)N=C(Nc2nc3c(s2)CCCC3)c2ccccc21	inconclusive: 35.5 µM [inhibitor, single point]
CC(=O)Nc1ccc2nc(SCC(=O)N3CCOCC3)sc2c1	inconclusive: 35.5 µM [activator, single point]
CC1(C)C(=O)Nc2ccccc2N1C(=O)CSc1nnc2ccccn12	inactive
O=C(COC(=O)c1ccc2[nH]c3c(c2c1)CCCC3)Nc1ccccc1	inactive
COCCNC(=S)N/N=C(\C)c1ccc(-n2ccnc2)cc1	inconclusive: 29.1 µM [inhibitor, single point]
Cc1ccc(NC(=O)c2csnn2)c(C)c1	inactive
Cc1ccc(S(=O)(=O)Nc2ccccc2-c2ccccc2)cc1	inconclusive: 1.16 µM [inhibitor, full curve]
Cn1ncc2c(=O)[nH]nnc21	inactive

Another view of part of the listing above.
O=[N+]([O-])c1ccc(C=NN2CCCCCC2)cc1
  Potency: inconclusive: 31.6 µM [inhibitor, single point]
C=CCOC(=O)N[C@H](/C(C(=O)OC)=C(\C)NCc1ccccc1)c1cccc(F)c1
  Potency: inconclusive: 1.88 µM [inhibitor, partial curve, poor fit]
